# Results published in PMC10070494, “WSSV exploits AMPK to activate mTORC2 signaling for proliferation by enhancing aerobic glycolysis”.
# Construct, isoform or probe ends are uncertain for at least one entry.
# Test system: rHIF1α DNA-binding domain (Marsupenaeus japonicus)
# Assay: EMSA
# Conditions: 1 and 3 μg rHIF1α, 0.1 μM probe; Chemiluminescent EMSA Kit (Beyotime), salt and pH not stated; competitor 10 min then biotin probe 20 min at 25 °C; native 6% polyacrylamide gel; recombinant protein; protein details: GST (pGEX-4T-2)
sequence,measurement,value
CAAATGACTAGAACGTGCGACATTAGTGAA (double strand) [HK-WT probe],binding result,binds
